Assay results taken from PMC12241364.

Amino acid sequences for entries named in this document (tags omitted). A change or cut given only in a name is not applied to a line headed by its entry.
UniProt Q0D2I5: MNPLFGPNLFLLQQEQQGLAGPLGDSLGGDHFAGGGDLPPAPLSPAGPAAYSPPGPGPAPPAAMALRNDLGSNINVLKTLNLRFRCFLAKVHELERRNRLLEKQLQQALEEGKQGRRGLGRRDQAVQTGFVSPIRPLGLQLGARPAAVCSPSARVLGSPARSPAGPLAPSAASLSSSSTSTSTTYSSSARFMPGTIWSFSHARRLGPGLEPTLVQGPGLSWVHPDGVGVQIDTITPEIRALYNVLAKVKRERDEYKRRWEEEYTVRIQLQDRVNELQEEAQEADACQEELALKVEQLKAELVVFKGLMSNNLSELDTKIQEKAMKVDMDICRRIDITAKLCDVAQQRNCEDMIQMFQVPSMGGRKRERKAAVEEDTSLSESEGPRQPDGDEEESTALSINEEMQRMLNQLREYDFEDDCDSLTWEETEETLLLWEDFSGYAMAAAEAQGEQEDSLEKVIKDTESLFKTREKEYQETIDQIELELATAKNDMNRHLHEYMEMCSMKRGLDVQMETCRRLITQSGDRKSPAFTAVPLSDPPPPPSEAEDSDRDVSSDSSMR
UniProt Q86VI3: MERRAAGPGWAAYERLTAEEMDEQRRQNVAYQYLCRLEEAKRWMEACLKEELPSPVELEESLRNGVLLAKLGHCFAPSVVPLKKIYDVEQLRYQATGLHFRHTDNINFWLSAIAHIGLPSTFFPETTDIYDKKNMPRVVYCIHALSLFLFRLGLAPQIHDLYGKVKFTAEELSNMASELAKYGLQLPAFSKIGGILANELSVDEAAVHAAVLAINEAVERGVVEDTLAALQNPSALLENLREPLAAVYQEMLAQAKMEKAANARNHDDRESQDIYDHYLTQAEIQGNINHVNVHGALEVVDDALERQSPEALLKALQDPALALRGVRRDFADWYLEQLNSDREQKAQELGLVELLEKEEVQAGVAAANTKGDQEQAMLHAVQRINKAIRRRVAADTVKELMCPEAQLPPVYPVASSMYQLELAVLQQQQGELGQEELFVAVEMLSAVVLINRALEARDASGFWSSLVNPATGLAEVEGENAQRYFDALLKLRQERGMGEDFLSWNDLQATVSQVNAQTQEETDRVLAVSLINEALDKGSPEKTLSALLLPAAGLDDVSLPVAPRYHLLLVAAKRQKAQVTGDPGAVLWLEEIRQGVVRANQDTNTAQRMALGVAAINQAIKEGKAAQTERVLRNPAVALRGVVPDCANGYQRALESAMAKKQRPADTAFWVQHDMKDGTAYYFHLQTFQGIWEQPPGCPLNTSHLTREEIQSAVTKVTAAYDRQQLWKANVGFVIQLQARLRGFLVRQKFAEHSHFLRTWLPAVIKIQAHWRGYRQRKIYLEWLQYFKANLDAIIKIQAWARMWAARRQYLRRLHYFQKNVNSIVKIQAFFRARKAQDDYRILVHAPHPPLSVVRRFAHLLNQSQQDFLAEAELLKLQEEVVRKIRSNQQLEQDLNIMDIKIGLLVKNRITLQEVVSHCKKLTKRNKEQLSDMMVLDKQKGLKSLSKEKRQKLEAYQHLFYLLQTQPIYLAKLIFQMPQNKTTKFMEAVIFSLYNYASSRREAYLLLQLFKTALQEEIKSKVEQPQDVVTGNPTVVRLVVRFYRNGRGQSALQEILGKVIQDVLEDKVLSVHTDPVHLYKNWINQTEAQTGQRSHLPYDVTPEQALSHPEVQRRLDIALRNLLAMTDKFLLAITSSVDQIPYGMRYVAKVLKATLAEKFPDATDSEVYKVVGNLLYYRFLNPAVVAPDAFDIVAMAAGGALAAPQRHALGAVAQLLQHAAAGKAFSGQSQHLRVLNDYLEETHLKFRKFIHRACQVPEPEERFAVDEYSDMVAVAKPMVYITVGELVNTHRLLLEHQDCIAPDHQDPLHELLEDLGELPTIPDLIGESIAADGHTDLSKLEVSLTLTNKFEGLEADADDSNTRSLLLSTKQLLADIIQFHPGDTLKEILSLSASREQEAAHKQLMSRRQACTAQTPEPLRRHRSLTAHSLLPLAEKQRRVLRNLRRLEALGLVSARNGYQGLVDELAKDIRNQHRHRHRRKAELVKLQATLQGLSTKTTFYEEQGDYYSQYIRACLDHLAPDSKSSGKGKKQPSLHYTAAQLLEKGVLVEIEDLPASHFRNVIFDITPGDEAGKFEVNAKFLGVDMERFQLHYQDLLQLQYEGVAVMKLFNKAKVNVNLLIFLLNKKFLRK

Key:
Assay in all cases: co-IP; full-length IFFO1 and its truncated mutants expressed in IFFO1-/- cells; IP and blot for IQGAP3
[1] = molecular target: IFFO1 1B coiled-coil domain deletion mutant (UniProt Q0D2I5)
[2] = molecular target: IFFO1 1A coiled-coil domain deletion mutant (UniProt Q0D2I5)
[3] = molecular target: IFFO1 2B coiled-coil domain deletion mutant (UniProt Q0D2I5)
[4] = molecular target: IFFO1 2A coiled-coil domain deletion mutant (UniProt Q0D2I5)

binding [1]: binds
binding [2]: binds
binding [3]: binds
binding [4]: no binding
Substance: IQGAP3 (IQ motif-containing GTPase-activating protein 3), endogenous (from UniProt Q86VI3 1-1631)

No constants are given. Whether binding was seen depends on the method and setting. In cells and extracts the contact can be indirect. For some of these results: A result given as binding can be weak or reduced; the word gives no strength.
